Test results from US20110195494A1 (Boehringer Ingelheim, published 2011).
These are yes or no findings as the source states them, for the method shown. Some entries that bind do so weakly or less than the wild type.

By UniProt entry, the sequences of proteins in these tests, tags left out. Where a name states a change or a piece, a line headed by the entry shows the natural chain unless it says otherwise. Residues count along the entry.
UniProt Q9NR61: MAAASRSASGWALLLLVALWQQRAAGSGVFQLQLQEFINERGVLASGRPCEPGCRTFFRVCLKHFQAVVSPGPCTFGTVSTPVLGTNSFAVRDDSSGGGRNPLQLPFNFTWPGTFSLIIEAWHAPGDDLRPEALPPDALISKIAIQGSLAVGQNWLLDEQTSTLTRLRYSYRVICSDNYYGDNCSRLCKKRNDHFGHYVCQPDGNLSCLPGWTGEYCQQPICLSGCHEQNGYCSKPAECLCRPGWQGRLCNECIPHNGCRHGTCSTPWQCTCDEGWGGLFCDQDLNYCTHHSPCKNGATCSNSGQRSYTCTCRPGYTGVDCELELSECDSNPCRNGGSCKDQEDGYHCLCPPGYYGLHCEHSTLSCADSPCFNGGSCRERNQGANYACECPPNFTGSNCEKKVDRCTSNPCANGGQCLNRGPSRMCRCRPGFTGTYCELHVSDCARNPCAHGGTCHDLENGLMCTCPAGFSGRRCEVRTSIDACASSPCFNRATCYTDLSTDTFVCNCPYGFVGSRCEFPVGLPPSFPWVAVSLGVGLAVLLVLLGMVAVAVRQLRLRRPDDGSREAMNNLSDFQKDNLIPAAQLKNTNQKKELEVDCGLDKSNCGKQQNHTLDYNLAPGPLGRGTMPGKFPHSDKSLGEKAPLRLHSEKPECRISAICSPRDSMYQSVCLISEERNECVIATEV
UniProt Q9JI71, residues 27-686: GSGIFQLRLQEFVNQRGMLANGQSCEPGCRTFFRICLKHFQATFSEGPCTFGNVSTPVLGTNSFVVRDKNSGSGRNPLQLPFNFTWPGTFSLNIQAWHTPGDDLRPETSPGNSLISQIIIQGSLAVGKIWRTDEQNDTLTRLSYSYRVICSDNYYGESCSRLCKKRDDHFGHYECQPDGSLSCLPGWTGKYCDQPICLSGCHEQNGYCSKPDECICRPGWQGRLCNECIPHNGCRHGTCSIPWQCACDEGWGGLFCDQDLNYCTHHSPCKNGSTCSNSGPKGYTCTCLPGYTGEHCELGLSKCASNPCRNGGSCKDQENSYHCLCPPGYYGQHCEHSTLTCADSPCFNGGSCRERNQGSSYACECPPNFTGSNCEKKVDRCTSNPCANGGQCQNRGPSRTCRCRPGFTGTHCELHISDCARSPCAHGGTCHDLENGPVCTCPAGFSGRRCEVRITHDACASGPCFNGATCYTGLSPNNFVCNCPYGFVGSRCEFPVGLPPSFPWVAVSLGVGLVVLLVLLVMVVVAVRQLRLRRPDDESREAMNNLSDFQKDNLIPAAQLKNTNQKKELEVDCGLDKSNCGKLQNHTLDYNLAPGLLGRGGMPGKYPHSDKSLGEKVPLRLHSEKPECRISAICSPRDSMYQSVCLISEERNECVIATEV

B1: DLLBII55D12 (VHH, not shown: small tags and cut ends)
VHH: EVQLVESGGGLVQPGGSLRLSCAASGFTFDDYAIGWFRQAPGKEPEGISCISSSGGITYYADSVKGRFTISRDNAKNTVYLQMNSLKPEDTAVYYCATPGIAACRGIHYTGQGTQVTVSS
B2: DLLBII96C03 (VHH)
VHH: EVQLVESGGGLVQPGGSLRLSCAASGFTFGNYDMSWVRQAPGKGPEWVSAINSGGGDTYYADSVKGRFTISRDNAKNTLYLQMNSLKPEDTAVYYCATPRGWGPTGPHEYGYWGQGTQVTVSS
notes: also called DLLBII96C3; DLLBII96CO3; not shown: C-terminal c-myc tag and His6 tag
B3: DLLBII102F08 (VHH)
VHH: EVQLVESGGGLVQTGDSLRLSCAASGSTFSNYRMGWFRQGPGKEREFVAAIGRNGQNTYYTDSVKGRFTVTRDNAKNMVYLQMNSLKPEDSAVYTCAASLRGWDTTRIDYEYWGQGTQVTVSS
notes: tested as periplasmic extract; also called DLLBII102F8; not shown: C-terminal c-myc tag and His6 tag
B4: DLLBII104A03 (VHH)
VHH: EVQLVESGGGLVQAGGSLRLSCAASGDIPRIAAMGWYRQAPGKQRELVATVSNAATTRYADSAKGRFTISRDNAKTVSLQMDNLKPEDTGVYYCYSLATTVTPSWVNYWGQGTQVTVSS
notes: tested as periplasmic extract; also called DLLBII104A3; not shown: C-terminal c-myc tag and His6 tag
B5: DLLBII104B05 (VHH)
VHH: EVQLVESGGGSVQAGGSLRLSCAASGSISRIDVMAWYRQAPGKERELVASISSGGSTNYADSVKGRFTISREYFKNMMYLQMNSLKFEDTAVYYCNADSRRGGVGNFFRSWGQGTQVTVSS
notes: tested as periplasmic extract; also called DLLBII104B5; not shown: C-terminal c-myc tag and His6 tag
B6: DLLBII104C04 (VHH)
VHH: EVQLVESGGGLVQAGGSLRLSCAAAGSTFSSYVMGWYRQAPGKQRELVAHISTRGITYYADSVKGRFTISRDNAKNTMYLQMNSLKPEDTAVYYCNTRRNFLSNYWGQGTQVTVSS
notes: tested as periplasmic extract; also called DLLBII104C4; not shown: C-terminal c-myc tag and His6 tag
B7: DLLBII107C03 (VHH)
VHH: EVQLVESGGGLVQPGGSLRLSCEVSGSIGSVSDMRWYRQAPGLQYELVARITSGSITDYSDSVKGRFTISRDNAKNTVYLQMNSLKPEDTAVYYCNADVQHSAWLKPLTYWGQGTQVTVSS
notes: tested as periplasmic extract; also called DLLBII107C3; not shown: C-terminal c-myc tag and His6 tag
B8: DLLBII112E07 (VHH)
VHH: EVQLVESGGGLVQAGGSLRLSCAASGRTVRSYATGWFRQAPGKEREFVAALRWSIGSIASVYYDDSVKGRFTISGDNAENTVYLQMNALKPEDTAIYYCASTTRGRYSALSASAYDYWGQGTQVTVSS
notes: tested as periplasmic extract; also called DLLBII112E7; not shown: C-terminal c-myc tag and His6 tag
B9: DLLBII07A02 (VHH, not shown: small tags and cut ends)
VHH: EVQLVESGGGLVQAGGSLRLSCAASGSTFNSYAMGWYRQAPGKQREWVAAFSTGGSTNYADSVKGRFTISRDNAKNTVYLQMNSLKPEDTAVYYCFYSGSYYYPTDVFEYDYWGQGTQVTVSS
B10: DLLBII7B05 (VHH)
VHH: EVQLVESGGGLVQAGGSLRLSCAASGFALDYYAVGWFRQAPGKEREGVSCISSRGGSTFYADSVKGRFTTSRNNAKNTVYLQMNSLKPEDTAVYYCAAHPLQNCCGGSAYASPEAVYEYWGQGTQVTVSS
notes: also called DLLBII07B05; DLLBII7B5; not shown: C-terminal c-myc tag and His6 tag
B11: DLLBII8C11 (VHH)
VHH: EVQLVESGGGLVQAGGSLRLSCAASGFTFDDYAIGWFRQAPGKEREGVSCISSHDRTTYYADSVKGRFTISSDNAKNTVYLQMNSLKPEDTAVYYCAADPLVCGYNDPRLADYWGQGTQVTVSS
notes: also called DLLBII08C11; not shown: C-terminal c-myc tag and His6 tag
B12: DLLBII8A09 (VHH)
VHH: EVQLVESGGGLVQPGGSLRLSCAASGFTLDYYNIGWFRQAPGKEREWVSCINSSDGSTYYADSVKGRFTISRDNAKNTVYLQMNSLKPEDTAVYYCAAPFAYYSNLCGVNGYDYWGQGTQVTVSS
notes: also called DLLBII08A09; not shown: C-terminal c-myc tag and His6 tag
B13: DLLBII5B11 (VHH)
VHH: EVQLVESGGGLVQPGGSLRLSCAISGFTLDLHVIGWLRQAPGKEREWVSCISSSDGSTYYADSVKGRFTISRDNAKNTVYLQMNSLKPEDTAVYYCAAPWDSWYCGIGNDYDYWGQGTQVTVSS
notes: also called DLLBII05B11; not shown: C-terminal c-myc tag and His6 tag
B14: DLLBII17F10 (VHH)
VHH: EVQLVESGGGLVQAGGSLRLSCASSGRTLLNYAMGWFRQAPGKEREFVSGINWSGGSTYYADSVKGRFTISRDNAENTVYLHMNSLKPEDTAVYYCAAAHDNYWFTDDSLGRGLKYWGQGTQVTVSS
notes: not shown: C-terminal c-myc tag and His6 tag
B15: DLLBII19F04 (VHH)
VHH: EVQLVESGGGLVQAEGSLRLSCAASGSTFSTYAMAWYRQAPGKQRELVAGISFDGSTHYAESVKGRFTISRDDAKNTVSLQMNSLKPEDAAVYYCYSVHPSTGFGSWGQGTQVTVSS
notes: also called DLLBII19F4; not shown: C-terminal c-myc tag and His6 tag
B16: DLLBII56A09 (VHH, not shown: small tags and cut ends)
VHH: EVQLVESGGGLVQPGGSLRLSCAASGFTFDDYAIGWFRQAPGKEPEGISCISSSGGITYYADSVKGRFTTSRDNAKNTVYLQMNSLKPEDTAVYYCATPGIAACRGIHYTGQGTQVTVSS
B17: DLLBII56C04 (VHH, not shown: small tags and cut ends)
VHH: EVQLVESGGGLVQPGGSLRLSCTASGFTFDVYAIGWFRQAPGKEPEGISCISSSGSITYYADSVKGRFTTSRDSAKNTVYLQMNSLKPEDTAVYYCATPGIAACRGIHYWGQGTQVTVSS
B18: DLLBII56H08 (VHH, not shown: small tags and cut ends)
VHH: EVQLVESGGGLVQPGGSLRLSCAASGFTFDDYAIGWFRQAPGKEPEEISCISSSGGITYYADSVKGRFTISRDNAKNTVYLQMNSLKPEDTAVYYCATPGIAACRGIHYTGQGTQVTVSS
B19: DLLBII57C11 (VHH, not shown: small tags and cut ends)
VHH: EVQLVESGGGLVQPGGSLRLSCTASGFTFDDYAIGWFRQAPGKEPEGISCISSSGSITYDADSVKGRFTISRDNAKNTVYLQMNSLKPEDTAVYYCATPGIAACRGIHYWGQGTQVTVSS
B20: DLLBII62C11 (VHH)
VHH: EVQLMESGGGLVQPGGSLRLSCVAAGFTFSNYYMSWVRQAPGKGLEWVSVISPDGSNTYYADTVKGRFTISRGNAKNTLFLQMTGLKSEDAAVYYCARGSGSWGVHGQGTQVTVSS
notes: as for B14
B21: DLLBII61F05 (VHH)
VHH: EVQLVESGGGLVQPGGSLRLSCTASGFTFSSYAMSWVRQAPGKGLEWVSFINKDGSDTGYADSVKGRFTISRDNAKNTMYLQMNSLKPEDTAVYFCETRTSRSPRPRGQGTQVTVSS
notes: tested as periplasmic extract; also called DLLBII61F5; not shown: C-terminal c-myc tag and His6 tag
B22: DLLBII61F07 (VHH)
VHH: EVQLVESGGGLVQAGGSLRLSCAASGRTFSRYAMGWFRQAPGKEREFVAAINWSGGSTYYADSVKGRFTISRDNAKNTVYLQMNSLKPEDTAVYDCAASNYYSVYDDRPVMDYWGQGTQVTVSS
notes: tested as periplasmic extract; also called DLLBII61F7; not shown: C-terminal c-myc tag and His6 tag
B23: 83G04 (VHH)
VHH: EVQLVESGGGLVKPGGSLRLSCAASGRTLYIMGWYRQAPGKEREFVAGISRYGDITYAADSVKGRFTISRDSVKNTVYLRMNSLKPDDTAVYYCAANGGYCSGYGCYEDSGQYDYWGQGTQVTVSS
notes: also called DLLBII83G04
B24: DLLBII95F02 (VHH)
VHH: EVQLVESGGGSVQAGGSLRLSCAASGRTFSSYAMGWFRQAPGKEREFVAAINWSGGYTYYADSVRGRFTISRDNAKNTVYLQMNSLKPEDTAVYYCAAPAPGSSGYEYDYWGQGTQVTVSS
notes: tested as periplasmic extract; also called DLLBII95F2; not shown: C-terminal c-myc tag and His6 tag
B25: DLLBII102G04 (VHH)
VHH: EVQLMESGGGLVQPGGSLRLSCAASGFTFSSYAMSWVRQAPGKGLEWVSRITSGGRTTYRDSVKGRFTISRDNSKNTLYLQMNSLKPEDTALYYCAKARGDIDVYTLSDSRGQGTQVTVSS
notes: tested as periplasmic extract; also called DLLBII102G4; not shown: C-terminal c-myc tag and His6 tag
B26: DLLBII58A11 (VHH)
VHH: EVQLVESGGGLVQAGGSLRLSCTTSERTVSRYSMGWFRQAPGKEREAVATISWSGDSTYYADSVKGRFTISRDNTKNTLYLQIDSLKPEDTAVYYCVAKPNLKYGSYWPPRGYDYWGQGTQVTVSS
notes: tested as periplasmic extract; not shown: C-terminal c-myc tag and His6 tag
B27: DLLBII80E08 (VHH)
VHH: EVQLVESGGGLVQAGGSLTLSCAASGGTFTTYAMGWFRQAPGKEREFVAAVSRFGVSWDYADSVKGRFTISRDNTANTLKLRMNSLKADDTAVYYCAAGGRSFLPFVPAYWGQGTQVTVSS
notes: tested as periplasmic extract; also called DLLBII80E8; not shown: C-terminal c-myc tag and His6 tag
B28: DLLBII101F01 (VHH)
VHH: EVQLVESGGGLVQAGGSLRLSCAASGRTFSNYAMGWFRQAPGKEREFVAAISWSGGDTYYADSVKGRFTISRDNAKNTVCLQMNSLKPEDTAVYYCAASFQSGAAPGANFYDYWGQGTQVTVSS
notes: tested as periplasmic extract; also called DLLBII101F1; not shown: C-terminal c-myc tag and His6 tag
B29: DLLBII101H09 (VHH)
VHH: EVQLVESGGGLVQPGGSLRLSCAASGFTLGYYTIVWFRQAPGKERKGVSCISSRDGSRYYADSVKGRFTISRDNAKNTVYLRMNSLKPEDTAVYYCAAGPDCSSYDYWGQGTQVTVSS
notes: tested as periplasmic extract; also called DLLBII101H9; not shown: C-terminal c-myc tag and His6 tag

Legend:
[1] = biological target: recombinant human DLL4, C-terminally His-tagged extracellular domain (R&D Systems) (human) (UniProt Q9NR61); experiment: binding ELISA, coated rhDLL4 [binding to rhDLL4]
[2] = biological target: recombinant human DLL4, C-terminally His-tagged extracellular domain (R&D Systems) (human) (UniProt Q9NR61); experiment: AlphaScreen competition: biotinylated hDLL4 vs hNotch1/Fc
[3] = biological target: recombinant human DLL4, C-terminally His-tagged extracellular domain (R&D Systems) (human) (UniProt Q9NR61); experiment: competition ELISA: biotinylated hDLL4 + binder, binding to coated hNotch1/Fc
[4] = biological target: full length mouse DLL4 on overexpressing CHO or HEK293 cells (mouse) (UniProt Q9JI71); experiment: FMAT competition: labelled hNotch1/Fc on CHO-mDLL4 cells

Binder	binding [1]	binding [2]	binding [3]	binding [4]
B1	binds	binds	binds	–
B2	binds	–	binds	–
B3	–	–	–	binds
B4	–	–	–	binds
B5	–	–	–	binds
B6	–	–	–	binds
B7	–	–	–	binds
B8	–	–	–	binds
B9	binds	binds	–	–
B10	binds	binds	–	–
B11	binds	binds	–	–
B12	binds	binds	–	–
B13	binds	binds	–	–
B14	binds	–	–	–
B15	binds	binds	–	–
B16	binds	binds	binds	–
B17	binds	binds	binds	–
B18	binds	binds	binds	–
B19	binds	binds	binds	–
B20	binds	binds	binds	–
B21	–	binds	–	binds
B22	–	binds	–	binds
B23	–	binds	–	–
B24	–	binds	–	binds
B25	–	binds	–	binds
B26	–	–	–	binds
B27	–	–	–	binds
B28	–	–	–	binds
B29	–	–	–	binds
